No constants are given. Whether binding was seen depends on the method and setting. Binding seen in cells or lysates may run through a third protein. Some binding calls cover weakened binding; strength is not graded here. For some assays here: Where a sequence is shown, tags or fusion partners need not be part of it.
Legend:
[1] = target: T1, SBP-Asi2 (S. cerevisiae) (UniProt P53895); assay: pull-down; co-expressed Asi1, SBP-Asi2 and Asi3; membranes solubilized in 1% DMNG, High Capacity Streptavidin Agarose overnight, washed in 300mM sodium chloride, 0.3mM DMNG, eluted with 2mM Biotin
T1 sequence: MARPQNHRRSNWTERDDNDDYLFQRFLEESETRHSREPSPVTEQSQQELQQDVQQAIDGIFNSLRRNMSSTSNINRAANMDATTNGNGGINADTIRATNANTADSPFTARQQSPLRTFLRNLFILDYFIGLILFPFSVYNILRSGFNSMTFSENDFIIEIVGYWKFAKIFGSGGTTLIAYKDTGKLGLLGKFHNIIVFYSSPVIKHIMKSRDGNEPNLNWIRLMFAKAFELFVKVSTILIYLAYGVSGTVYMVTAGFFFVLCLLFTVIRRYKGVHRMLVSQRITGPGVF

[2] = target: T2, FLAG-Asi3 (S. cerevisiae) (UniProt P53983); assay: co-IP; co-expressed Asi1, SBP-Asi2 and FLAG-Asi3; membranes solubilized in 1% DMNG, FLAG M2 agarose beads overnight, washed in 300mM sodium chloride, 0.3mM DMNG, eluted with 3xFlag-peptide
T2 sequence: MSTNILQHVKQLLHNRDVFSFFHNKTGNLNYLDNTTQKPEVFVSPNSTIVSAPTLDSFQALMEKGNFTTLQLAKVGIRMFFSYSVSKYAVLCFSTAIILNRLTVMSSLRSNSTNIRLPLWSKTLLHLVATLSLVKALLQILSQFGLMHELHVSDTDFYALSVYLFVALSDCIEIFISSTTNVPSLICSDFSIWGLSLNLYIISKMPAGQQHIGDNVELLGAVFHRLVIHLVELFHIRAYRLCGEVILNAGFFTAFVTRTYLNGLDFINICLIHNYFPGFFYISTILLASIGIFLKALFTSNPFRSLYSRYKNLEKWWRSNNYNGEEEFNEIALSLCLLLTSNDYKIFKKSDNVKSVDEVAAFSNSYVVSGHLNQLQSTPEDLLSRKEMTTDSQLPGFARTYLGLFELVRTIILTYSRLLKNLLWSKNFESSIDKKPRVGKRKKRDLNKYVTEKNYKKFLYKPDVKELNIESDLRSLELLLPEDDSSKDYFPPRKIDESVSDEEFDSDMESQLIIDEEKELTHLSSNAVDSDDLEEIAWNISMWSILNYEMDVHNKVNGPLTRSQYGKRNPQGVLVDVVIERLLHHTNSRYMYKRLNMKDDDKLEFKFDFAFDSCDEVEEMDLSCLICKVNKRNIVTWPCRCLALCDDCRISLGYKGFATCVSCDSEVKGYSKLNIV

[3] = target: T3, the Asi complex (Asi1 and Asi3, the partners of Asi2) (S. cerevisiae (endogenous in yeast cells)) (UniProt P54074+P53983); assay: co-IP; native immunoprecipitation from membranes solubilized in 1% GDN or 1% DMNG, FLAG M2 magnetic beads or Protein A beads coupled to anti-Asi1 and anti-Asi2 antibodies, overnight at 4°C
T3 sequence 1: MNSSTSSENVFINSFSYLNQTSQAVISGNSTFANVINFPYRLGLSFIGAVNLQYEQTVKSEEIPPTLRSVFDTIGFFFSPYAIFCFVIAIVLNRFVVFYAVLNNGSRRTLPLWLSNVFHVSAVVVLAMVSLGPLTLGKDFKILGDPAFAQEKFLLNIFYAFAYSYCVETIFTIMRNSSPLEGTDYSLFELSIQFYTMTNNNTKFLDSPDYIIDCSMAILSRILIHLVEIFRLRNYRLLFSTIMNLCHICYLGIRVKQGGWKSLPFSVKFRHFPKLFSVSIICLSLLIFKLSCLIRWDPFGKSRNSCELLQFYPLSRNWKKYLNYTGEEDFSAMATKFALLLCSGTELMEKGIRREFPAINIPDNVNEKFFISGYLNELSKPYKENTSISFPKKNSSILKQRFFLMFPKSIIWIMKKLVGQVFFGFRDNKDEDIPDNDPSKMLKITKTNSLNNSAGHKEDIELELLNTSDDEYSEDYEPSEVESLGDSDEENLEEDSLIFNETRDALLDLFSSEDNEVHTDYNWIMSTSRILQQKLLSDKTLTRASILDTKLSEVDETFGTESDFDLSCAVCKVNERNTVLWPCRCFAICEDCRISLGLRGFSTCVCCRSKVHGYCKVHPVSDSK
T3 sequence 2: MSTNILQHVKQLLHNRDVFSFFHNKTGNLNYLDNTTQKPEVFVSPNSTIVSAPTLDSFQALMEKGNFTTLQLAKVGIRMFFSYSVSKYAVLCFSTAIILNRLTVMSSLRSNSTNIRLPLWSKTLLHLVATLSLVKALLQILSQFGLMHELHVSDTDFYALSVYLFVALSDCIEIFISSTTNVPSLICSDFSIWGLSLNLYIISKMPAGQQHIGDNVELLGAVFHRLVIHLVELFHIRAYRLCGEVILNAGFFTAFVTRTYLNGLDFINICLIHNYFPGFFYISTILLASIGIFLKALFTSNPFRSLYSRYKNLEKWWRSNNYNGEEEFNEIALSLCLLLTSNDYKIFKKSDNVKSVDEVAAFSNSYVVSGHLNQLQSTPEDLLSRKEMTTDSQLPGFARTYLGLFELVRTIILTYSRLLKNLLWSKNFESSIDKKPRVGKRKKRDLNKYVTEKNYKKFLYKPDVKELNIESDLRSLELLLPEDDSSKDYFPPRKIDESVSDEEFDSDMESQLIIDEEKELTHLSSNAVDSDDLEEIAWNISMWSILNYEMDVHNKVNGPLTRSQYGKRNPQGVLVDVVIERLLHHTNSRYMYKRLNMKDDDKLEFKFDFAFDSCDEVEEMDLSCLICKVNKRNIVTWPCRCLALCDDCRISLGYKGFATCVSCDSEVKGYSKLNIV

B1: Asi3 (untagged, overexpressed) (protein, UniProt P53983 1-676)
chain: MSTNILQHVKQLLHNRDVFSFFHNKTGNLNYLDNTTQKPEVFVSPNSTIVSAPTLDSFQALMEKGNFTTLQLAKVGIRMFFSYSVSKYAVLCFSTAIILNRLTVMSSLRSNSTNIRLPLWSKTLLHLVATLSLVKALLQILSQFGLMHELHVSDTDFYALSVYLFVALSDCIEIFISSTTNVPSLICSDFSIWGLSLNLYIISKMPAGQQHIGDNVELLGAVFHRLVIHLVELFHIRAYRLCGEVILNAGFFTAFVTRTYLNGLDFINICLIHNYFPGFFYISTILLASIGIFLKALFTSNPFRSLYSRYKNLEKWWRSNNYNGEEEFNEIALSLCLLLTSNDYKIFKKSDNVKSVDEVAAFSNSYVVSGHLNQLQSTPEDLLSRKEMTTDSQLPGFARTYLGLFELVRTIILTYSRLLKNLLWSKNFESSIDKKPRVGKRKKRDLNKYVTEKNYKKFLYKPDVKELNIESDLRSLELLLPEDDSSKDYFPPRKIDESVSDEEFDSDMESQLIIDEEKELTHLSSNAVDSDDLEEIAWNISMWSILNYEMDVHNKVNGPLTRSQYGKRNPQGVLVDVVIERLLHHTNSRYMYKRLNMKDDDKLEFKFDFAFDSCDEVEEMDLSCLICKVNKRNIVTWPCRCLALCDDCRISLGYKGFATCVSCDSEVKGYSKLNIV
**Q.** How did the binding [1] turn out when B1 was run?
**A.** binds

B2: Asi1 (untagged, overexpressed) (protein, UniProt P54074 1-624)
chain: MNSSTSSENVFINSFSYLNQTSQAVISGNSTFANVINFPYRLGLSFIGAVNLQYEQTVKSEEIPPTLRSVFDTIGFFFSPYAIFCFVIAIVLNRFVVFYAVLNNGSRRTLPLWLSNVFHVSAVVVLAMVSLGPLTLGKDFKILGDPAFAQEKFLLNIFYAFAYSYCVETIFTIMRNSSPLEGTDYSLFELSIQFYTMTNNNTKFLDSPDYIIDCSMAILSRILIHLVEIFRLRNYRLLFSTIMNLCHICYLGIRVKQGGWKSLPFSVKFRHFPKLFSVSIICLSLLIFKLSCLIRWDPFGKSRNSCELLQFYPLSRNWKKYLNYTGEEDFSAMATKFALLLCSGTELMEKGIRREFPAINIPDNVNEKFFISGYLNELSKPYKENTSISFPKKNSSILKQRFFLMFPKSIIWIMKKLVGQVFFGFRDNKDEDIPDNDPSKMLKITKTNSLNNSAGHKEDIELELLNTSDDEYSEDYEPSEVESLGDSDEENLEEDSLIFNETRDALLDLFSSEDNEVHTDYNWIMSTSRILQQKLLSDKTLTRASILDTKLSEVDETFGTESDFDLSCAVCKVNERNTVLWPCRCFAICEDCRISLGLRGFSTCVCCRSKVHGYCKVHPVSDSK
**Q.** What does the source list for B2?
**A.** binding [2]: binds; binding [1]: binds

B3: SBP-Asi2 (protein, UniProt P53895 1-289)
chain: MARPQNHRRSNWTERDDNDDYLFQRFLEESETRHSREPSPVTEQSQQELQQDVQQAIDGIFNSLRRNMSSTSNINRAANMDATTNGNGGINADTIRATNANTADSPFTARQQSPLRTFLRNLFILDYFIGLILFPFSVYNILRSGFNSMTFSENDFIIEIVGYWKFAKIFGSGGTTLIAYKDTGKLGLLGKFHNIIVFYSSPVIKHIMKSRDGNEPNLNWIRLMFAKAFELFVKVSTILIYLAYGVSGTVYMVTAGFFFVLCLLFTVIRRYKGVHRMLVSQRITGPGVF
**Q.** How did the binding [2] turn out when B3 was run?
**A.** binds

B4: Asi2Δ4 (protein, UniProt P53895)
chain: MARPQNHRRSNWTERDDNDDYLFQRFLEESETRHSREPSPVTEQSQQELQQDVQQAIDGIFNSLRRNMSSTSNINRAANMDATTNGNGGINADTIRATNANTADSPFTARQQSPLRTFLRNLFILDYFIGLILFPFSVYNILRSGFNSMTFSENDFIIEIVGYWKFAKIFGSGGTTLIAYKDTGKLGLLGKFHNIIVFYSSPVIKHIMKSRDGNEPNLNWIRLMFAKAFELFVKVSTILIYLAYGVSGTVYMVTAGFFFVFTVIRRYKGVHRMLVSQRITGPGVF
**Q.** Which binding [3] does the source give for B4 here?
**A.** binds
